Test results published in patent publication US11092596B2, “Material and method to screen proteasome stimulators” (Purdue Research Foundation, priority 2017, dated 2021).
Not every entry of the source has a single result; some have several. This list holds those alone. An entry can have further records. Values given together differ for a reason that is not stated; some may be repeats, others may stem from another dose, organism or construct than stated.

Target: chymotrypsin-like activity of the 20S CP (Homo sapiens, UniProt P28074)
Test: Kinetic assay, CT-L FRET reporter hydrolysis by purified 20S CP
Assay type: biochemical
Conditions: maximum of dose response curve

SMILES: Cc1c(C)c2c(c(C)c1OC(=O)CCC(=O)O)CCC(C)(CCCC(C)CCCC(C)CCCC(C)C)O2 (stereo not shown)
- 20S CP stimulation over basal level (dose response curve): 150% and 50%
